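The test is a small-molecule microarray: each compound is printed twice on a reactive slide, and binding shows as fluorescence of the labelled oligonucleotide after washing. For the PreQ1, TPP and SAM-II riboswitches the laboratory earlier reported (doi:10.1038/s41467-019-09493-3) 1 µM RNA, 2 h, and a rule that included a mean Z-score above 3 (spot signal-to-noise against the whole library), a score well above that on a control array, and duplicate spots agreeing (coefficient of variation under 100). The data file gives only the calls; its cut-offs may differ, and compounds hitting several targets are kept. A missing hit is not proof of no binding, and a hit is not a measured affinity.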 A compound is marked 1 if it was called a hit and 0 if it was screened but was not. Compounds were drawn at random from those tested, without regard to their results. A target missing from an entry has no call listed here.

Targets (5′ to 3′):
PreQ1: PreQ1 riboswitch RNA pseudoknot, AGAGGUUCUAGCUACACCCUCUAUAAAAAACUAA. From B. subtilis. About 24,000 compounds screened, about 170 hits.
SAM-II: SAM-II riboswitch RNA pseudoknot, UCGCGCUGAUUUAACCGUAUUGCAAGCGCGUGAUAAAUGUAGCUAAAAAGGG. About 21,000 compounds screened, about 200 hits.
TPP: TPP riboswitch RNA three-way junction, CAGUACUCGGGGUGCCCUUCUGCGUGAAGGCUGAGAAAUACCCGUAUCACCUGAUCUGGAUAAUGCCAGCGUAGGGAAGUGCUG. About 24,000 compounds screened, about 160 hits.

{"structure": "COc1ccc2cc(C3CN(c4cc(C)nc(N)n4)CCO3)ccc2c1", "stereo": "stereo not given", "PreQ1": "0", "SAM-II": "0", "TPP": "0"}
{"structure": "CC(C)Nc1ccc(-n2ccnc2-c2ccc(C#CCO)s2)cn1", "PreQ1": "0", "SAM-II": "0", "TPP": "0"}
{"structure": "CC(C)Oc1ccc(-c2[nH]c3c(C#N)cnn3c2NC2CCCC(C)C2C)cc1", "stereo": "stereo not given", "PreQ1": "0", "TPP": "0"}
{"structure": "C=CCOc1ccc(C2C(C#N)=C(N)Oc3cc(C)oc(=O)c32)cc1", "stereo": "stereo not given", "PreQ1": "0", "SAM-II": "0", "TPP": "0"}
{"structure": "CNc1nc(=O)n(C2C[C@@H](O)[C@@H](CO)O2)cc1C", "stereo": "stereo not given in full", "PreQ1": "0", "SAM-II": "0", "TPP": "0"}
{"structure": "CCOC(=O)Cc1sc(Nc2c(C)n[nH]c2C)nc1-c1ccccc1", "PreQ1": "0", "SAM-II": "0", "TPP": "0"}
{"structure": "Cn1cc(C(=O)N2CCN(CCO)[C@@H]3CS(=O)(=O)C[C@@H]32)c2ccccc21", "PreQ1": "0", "SAM-II": "0", "TPP": "0"}
{"structure": "CCc1nnc(CNC(=O)c2cnc3c(c2)nc(N)n3CC)s1", "PreQ1": "0", "SAM-II": "0", "TPP": "0"}
{"structure": "CS(=O)(=O)c1ccc(-c2cc(C3CC3)c(C#N)c(N)n2)cc1", "PreQ1": "0", "SAM-II": "0", "TPP": "0"}
{"structure": "Cc1nc(C2=C(N)N(CCN3CCOCC3)CC2=O)sc1C", "PreQ1": "0", "TPP": "0"}
{"structure": "O=C(c1cn(-c2ccccc2)nn1)N1CCOCC(O)C1", "stereo": "stereo not given", "PreQ1": "0", "SAM-II": "0", "TPP": "0"}
{"structure": "Cc1nc2c(-c3ccccc3)cnn2c(NCC2CCCO2)c1C", "stereo": "stereo not given", "PreQ1": "0", "TPP": "0"}
{"structure": "CCN(C)C[C@@H]1CN(C(=O)c2nc(-c3ccccc3)[nH]c2C)C[C@@H]1CO", "PreQ1": "0", "SAM-II": "0", "TPP": "0"}
{"structure": "COc1c2occc2cc2ccc(=O)oc12", "PreQ1": "0", "SAM-II": "0", "TPP": "0"}
{"structure": "CCCCNC(=O)c1nn(-c2ccc(C)c(C)c2)nc1CO", "PreQ1": "0", "TPP": "0"}
{"structure": "Cc1cc(NCc2ccccc2)n2nc(Cc3ccc(Cl)cc3)nc2n1", "PreQ1": "0", "TPP": "0"}
{"structure": "COc1cc2nc(NCCCOC(C)C)n3nc(-c4cccnc4)nc3c2cc1OC", "PreQ1": "0", "TPP": "0"}
{"structure": "CC(O)C(=O)N1CCc2ccc(S(=O)(=O)Nc3cccnc3)cc2C1", "stereo": "stereo not given", "PreQ1": "0", "SAM-II": "0", "TPP": "0"}
{"structure": "COc1ccc(CNCCC(c2ccccc2)C2CCOC(C)(C)C2)cc1OC", "stereo": "stereo not given", "PreQ1": "0", "SAM-II": "0", "TPP": "0"}
{"structure": "O=S(=O)(c1ccccc1)c1nc(-c2ccccc2Cl)oc1NCCCn1ccnc1", "PreQ1": "0", "TPP": "0"}
{"structure": "Cc1ccc(-c2cc(O)c3c(c2)CN(C(=O)C2C=CCN2)CCO3)s1", "stereo": "stereo not given", "PreQ1": "0", "SAM-II": "0", "TPP": "0"}
{"structure": "COCc1cc(C)nc2sc(C(=O)N3c4ccc(C)cc4C4CN(C)CCC43)c(N)c12", "stereo": "stereo not given", "PreQ1": "0", "SAM-II": "0", "TPP": "0"}
{"structure": "CCC(CO)N(Cc1ccsc1)Cc1cnc2ccccc2n1", "stereo": "stereo not given", "PreQ1": "0", "SAM-II": "0", "TPP": "0"}
{"structure": "Cc1cc2ncn(CC(O)COc3ccc(C(C)C)cc3)c2cc1C", "stereo": "stereo not given", "PreQ1": "0", "SAM-II": "0", "TPP": "0"}
{"structure": "CN(C)CCC1CCCCN1Cc1ccc(CCN)cc1", "stereo": "stereo not given", "PreQ1": "0", "SAM-II": "0", "TPP": "0"}
{"structure": "CNc1oc(-c2ccc(S(=O)(=O)N(C)Cc3ccccc3)cc2)nc1C#N", "PreQ1": "0", "TPP": "0"}
{"structure": "COc1ccc(-c2ccc(C(=O)N3CC[C@H]4CNC[C@H]43)c(=O)[nH]2)cc1", "PreQ1": "0", "SAM-II": "0", "TPP": "0"}
{"structure": "CN1N=C(N)c2cn([C@@H]3O[C@H](COP(=O)(O)O)[C@@H](O)[C@@H]3O)c3ncnc1c23", "PreQ1": "0", "SAM-II": "0", "TPP": "0"}
{"structure": "CCO[C@H]1C[C@@H](O)C12CCN(Cc1nnc(C3CC3)o1)CC2", "PreQ1": "0", "SAM-II": "0", "TPP": "0"}
{"structure": "COc1cccc(CNc2nc3ccccc3n3c(C)nnc23)c1", "PreQ1": "0", "SAM-II": "0", "TPP": "0"}
{"structure": "CC(C)c1cc(NCCCOc2cccnc2)nc(N)n1", "PreQ1": "0", "SAM-II": "0", "TPP": "0"}
{"structure": "Cc1ccn2c(C(C)O)nnc2c1", "stereo": "stereo not given", "PreQ1": "0", "SAM-II": "0", "TPP": "0"}
{"structure": "CN(C)c1cc(N2C[C@@H](CN3CCOCC3)C[C@H](CO)C2)ncn1", "PreQ1": "0", "SAM-II": "0", "TPP": "0"}
{"structure": "Cc1ccc(C(=O)Oc2cc(N)n(S(=O)(=O)c3ccc(C)cc3)n2)cc1", "PreQ1": "0", "SAM-II": "0", "TPP": "0"}
{"structure": "CCOC(=O)C1CCCN(c2c(Nc3ccc(OCC)cc3)c(=O)c2=O)C1", "stereo": "stereo not given", "PreQ1": "0", "TPP": "0"}
{"structure": "CC(=O)NCC(=O)N1[C@H]2CC[C@H]1c1cc(Nc3ncc(C(F)(F)F)c(NC4CCC4)n3)ccc12", "PreQ1": "0", "SAM-II": "0", "TPP": "0"}
{"structure": "CCC(C)n1c(C)cc(=O)n1C(C)CC", "stereo": "stereo not given", "PreQ1": "0", "SAM-II": "0", "TPP": "1"}

Some entries from above, unchanged:

| structure | PreQ1 | SAM-II | TPP |
|---|---|---|---|
| `O=C(c1cn(-c2ccccc2)nn1)N1CCOCC(O)C1` (stereo not given) | 0 | 0 | 0 |
| `CCC(CO)N(Cc1ccsc1)Cc1cnc2ccccc2n1` (stereo not given) | 0 | 0 | 0 |
| `COc1ccc(-c2ccc(C(=O)N3CC[C@H]4CNC[C@H]43)c(=O)[nH]2)cc1` | 0 | 0 | 0 |
| `COc1ccc(CNCCC(c2ccccc2)C2CCOC(C)(C)C2)cc1OC` (stereo not given) | 0 | 0 | 0 |

Source: the ROBIN nucleic acid binder screens (doi:10.1002/anie.202211358).